In PMC2217592:
These are yes or no findings as the source states them, for the method shown. In cells and extracts the contact can be indirect. Some binding calls cover weakened binding; strength is not graded here.

The chains behind the UniProt entries cited, without tags or fusion partners. Residues count along the entry.
UniProt Q13488, residues 217-830: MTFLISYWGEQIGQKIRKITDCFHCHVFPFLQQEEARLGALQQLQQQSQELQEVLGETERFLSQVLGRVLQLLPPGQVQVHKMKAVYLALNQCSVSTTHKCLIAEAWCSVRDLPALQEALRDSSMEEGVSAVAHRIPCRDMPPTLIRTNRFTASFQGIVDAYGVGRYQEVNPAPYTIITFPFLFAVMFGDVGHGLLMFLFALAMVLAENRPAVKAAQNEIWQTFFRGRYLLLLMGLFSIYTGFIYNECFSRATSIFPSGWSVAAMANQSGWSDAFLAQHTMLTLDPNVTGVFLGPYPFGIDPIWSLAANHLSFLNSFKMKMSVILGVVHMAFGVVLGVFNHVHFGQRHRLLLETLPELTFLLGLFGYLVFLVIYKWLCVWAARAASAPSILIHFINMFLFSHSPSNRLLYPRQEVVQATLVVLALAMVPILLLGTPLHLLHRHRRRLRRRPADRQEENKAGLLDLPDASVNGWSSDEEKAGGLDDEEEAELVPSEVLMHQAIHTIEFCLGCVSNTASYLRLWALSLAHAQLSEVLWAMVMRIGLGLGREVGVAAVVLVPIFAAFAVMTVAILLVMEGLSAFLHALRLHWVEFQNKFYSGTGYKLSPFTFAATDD
UniProt P29350: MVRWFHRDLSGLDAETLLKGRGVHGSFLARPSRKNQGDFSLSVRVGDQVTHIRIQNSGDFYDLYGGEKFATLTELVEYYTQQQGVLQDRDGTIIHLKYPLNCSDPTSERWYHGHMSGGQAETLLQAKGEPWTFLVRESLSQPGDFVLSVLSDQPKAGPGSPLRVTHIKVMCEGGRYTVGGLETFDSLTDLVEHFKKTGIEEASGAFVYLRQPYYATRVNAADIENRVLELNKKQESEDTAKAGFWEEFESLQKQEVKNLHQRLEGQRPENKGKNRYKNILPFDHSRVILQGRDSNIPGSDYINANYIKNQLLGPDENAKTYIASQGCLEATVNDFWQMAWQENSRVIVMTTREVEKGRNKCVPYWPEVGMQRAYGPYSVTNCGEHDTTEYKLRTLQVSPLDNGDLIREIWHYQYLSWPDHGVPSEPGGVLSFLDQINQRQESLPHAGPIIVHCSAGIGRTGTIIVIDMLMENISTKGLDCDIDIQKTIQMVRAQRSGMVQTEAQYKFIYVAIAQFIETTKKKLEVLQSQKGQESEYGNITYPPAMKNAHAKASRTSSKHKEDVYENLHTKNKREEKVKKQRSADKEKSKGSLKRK
UniProt P01903, residues 26-254: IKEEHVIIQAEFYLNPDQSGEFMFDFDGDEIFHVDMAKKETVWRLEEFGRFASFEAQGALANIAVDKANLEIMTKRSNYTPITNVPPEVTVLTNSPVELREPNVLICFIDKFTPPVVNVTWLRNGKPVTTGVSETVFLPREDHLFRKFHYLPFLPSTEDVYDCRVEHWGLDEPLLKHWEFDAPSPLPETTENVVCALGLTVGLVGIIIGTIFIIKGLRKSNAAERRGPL

Tests used:
[1] = molecular target: TIRC7 (human (endogenous in PBL)) (UniProt Q13488); assay: co-IP; lysates of 1 h allo-activated human PBL, immunoprecipitated with anti-TIRC7 mAb (20 µg), protein-A/protein-G Sepharose; immunoblot with anti-HLA-DR mAb (CBL120), anti-TIRC7 or anti-SHP-1
[2] = molecular target: TIRC7 (human (endogenous in PBL)) (UniProt Q13488); assay: co-IP; polyclonal antibody recognizing TIRC7; co-precipitated chain identified by protein sequencing; data not shown

binding [1]	binding [2]	Substance
binds		SHP-1 (from UniProt P29350 1-595) (enzyme)
binds	binds	HLA-DR alpha chain (from UniProt P01903 26-254)
